Measurements from PMC2727916.
Results are given in words; binding and its absence hold for the method and conditions named. Binding seen in cells or lysates may run through a third protein. Binding calls can cover weak binding; strength is not graded here.

T1: GASZ, endogenous in mouse testis (mouse (endogenous in testis)) (UniProt Q8VD46)
T1 sequence: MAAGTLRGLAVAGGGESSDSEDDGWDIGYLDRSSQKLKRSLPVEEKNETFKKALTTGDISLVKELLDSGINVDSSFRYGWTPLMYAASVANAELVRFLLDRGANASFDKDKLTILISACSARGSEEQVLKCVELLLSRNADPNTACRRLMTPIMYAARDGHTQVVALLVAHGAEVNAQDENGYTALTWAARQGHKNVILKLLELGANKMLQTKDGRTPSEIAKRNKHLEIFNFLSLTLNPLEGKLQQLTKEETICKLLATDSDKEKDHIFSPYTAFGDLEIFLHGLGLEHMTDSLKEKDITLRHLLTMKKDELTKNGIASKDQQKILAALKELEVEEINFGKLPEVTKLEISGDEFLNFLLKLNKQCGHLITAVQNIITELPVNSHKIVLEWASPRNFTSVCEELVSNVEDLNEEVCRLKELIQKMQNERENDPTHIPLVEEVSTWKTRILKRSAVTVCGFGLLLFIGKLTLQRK


What was measured:
[1] = molecular target: T1, GASZ, endogenous in mouse testis (mouse (endogenous in testis)); experiment: co-IP; 1 mg testicular lysate of 21-day-old WT mice, 0.5% NP-40 lysis buffer, pre-cleared, overnight at 4°C with anti-GASZ, anti-MIWI or no primary antibody, protein G beads in 5% BSA; western blot
[2] = molecular target: MIWI, endogenous in mouse testis (mouse (endogenous in testis)); experiment: as above

Molecule	binding [1]	binding [2]
MILI, endogenous in mouse testis	no binding	–
MIWI, endogenous in mouse testis	binds	–
GASZ, endogenous in mouse testis (protein, UniProt Q8VD46 1-475) MAAGTLRGLAVAGGGESSDSEDDGWDIGYLDRSSQKLKRSLPVEEKNETFKKALTTGDISLVKELLDSGINVDSSFRYGWTPLMYAASVANAELVRFLLDRGANASFDKDKLTILISACSARGSEEQVLKCVELLLSRNADPNTACRRLMTPIMYAARDGHTQVVALLVAHGAEVNAQDENGYTALTWAARQGHKNVILKLLELGANKMLQTKDGRTPSEIAKRNKHLEIFNFLSLTLNPLEGKLQQLTKEETICKLLATDSDKEKDHIFSPYTAFGDLEIFLHGLGLEHMTDSLKEKDITLRHLLTMKKDELTKNGIASKDQQKILAALKELEVEEINFGKLPEVTKLEISGDEFLNFLLKLNKQCGHLITAVQNIITELPVNSHKIVLEWASPRNFTSVCEELVSNVEDLNEEVCRLKELIQKMQNERENDPTHIPLVEEVSTWKTRILKRSAVTVCGFGLLLFIGKLTLQRK	–	binds
